Results are given in words; binding and its absence hold for the method and conditions named. In cells and extracts the contact can be indirect. Some binding calls cover weakened binding; strength is not graded here.
Molecular target: T1, interferon regulatory factor-2 (IRF2) (mouse) (UniProt P23906)
T1 sequence (looked up): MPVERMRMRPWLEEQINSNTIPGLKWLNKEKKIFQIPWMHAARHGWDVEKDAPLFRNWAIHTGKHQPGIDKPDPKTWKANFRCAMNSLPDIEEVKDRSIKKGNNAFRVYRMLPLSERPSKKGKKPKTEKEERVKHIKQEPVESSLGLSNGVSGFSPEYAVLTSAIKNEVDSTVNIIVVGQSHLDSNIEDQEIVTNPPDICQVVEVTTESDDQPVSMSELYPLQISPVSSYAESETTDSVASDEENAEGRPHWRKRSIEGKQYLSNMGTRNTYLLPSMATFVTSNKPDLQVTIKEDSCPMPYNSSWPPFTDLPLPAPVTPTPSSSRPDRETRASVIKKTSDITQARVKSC
Assay: co-immunoprecipitation of IRF2 from MM1 cells, immunoblot for IRF2BP2

Amino acid sequences for entries named in this document (tags omitted). Residues count along the entry.
UniProt E9Q1P8, residues 2-570: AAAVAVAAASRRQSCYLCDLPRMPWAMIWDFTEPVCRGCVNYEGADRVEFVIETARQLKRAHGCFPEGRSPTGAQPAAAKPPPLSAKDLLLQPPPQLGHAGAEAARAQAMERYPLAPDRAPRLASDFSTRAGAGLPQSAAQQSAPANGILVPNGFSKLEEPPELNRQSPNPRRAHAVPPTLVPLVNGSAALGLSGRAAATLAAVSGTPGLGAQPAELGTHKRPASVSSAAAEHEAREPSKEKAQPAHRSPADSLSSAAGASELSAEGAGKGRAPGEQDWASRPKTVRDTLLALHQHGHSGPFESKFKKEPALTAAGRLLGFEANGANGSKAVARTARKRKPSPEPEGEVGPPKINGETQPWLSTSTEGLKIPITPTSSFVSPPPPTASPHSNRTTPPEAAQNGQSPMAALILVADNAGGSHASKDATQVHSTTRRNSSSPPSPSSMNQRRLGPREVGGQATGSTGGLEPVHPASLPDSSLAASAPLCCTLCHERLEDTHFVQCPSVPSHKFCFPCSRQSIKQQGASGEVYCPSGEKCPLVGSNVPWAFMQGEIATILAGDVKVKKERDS

binding: binds
Substance: IRF2 binding protein 2 (IRF2BP2) (from UniProt E9Q1P8 2-570)

Source: patent US20230192863A1
